Test results reported in paper doi:10.1101/2024.12.17.628619 (bioRxiv, 2024).
These are yes or no findings as the source states them, for the method shown. For some assays here: Binding seen in cells or lysates may run through a third protein. Some entries that bind do so weakly or less than the wild type. One block for each molecule: values may come before it.

Amino acid sequences for entries named in this document (tags omitted). A change or cut given only in a name is not applied to a line headed by its entry. Chains listed by the source or under a name are the forms on record and can include a tag or linker. Residues count along the entry.
GST-CDK4EE (CDK4 with G43-G47 replaced with Glu-Glu) (P11802, form named): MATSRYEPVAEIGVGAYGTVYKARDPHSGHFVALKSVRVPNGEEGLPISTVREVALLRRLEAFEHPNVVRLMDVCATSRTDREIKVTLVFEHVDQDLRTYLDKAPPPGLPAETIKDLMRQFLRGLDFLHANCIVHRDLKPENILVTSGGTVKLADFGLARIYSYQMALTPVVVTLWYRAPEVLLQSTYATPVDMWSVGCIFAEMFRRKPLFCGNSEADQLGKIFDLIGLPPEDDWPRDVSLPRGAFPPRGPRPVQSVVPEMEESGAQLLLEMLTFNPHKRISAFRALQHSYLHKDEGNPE
MBP-AMBRA1^WD40 (residues M1-N204 directly fused to S853-G1044), wild type (Q9C0C7, form named): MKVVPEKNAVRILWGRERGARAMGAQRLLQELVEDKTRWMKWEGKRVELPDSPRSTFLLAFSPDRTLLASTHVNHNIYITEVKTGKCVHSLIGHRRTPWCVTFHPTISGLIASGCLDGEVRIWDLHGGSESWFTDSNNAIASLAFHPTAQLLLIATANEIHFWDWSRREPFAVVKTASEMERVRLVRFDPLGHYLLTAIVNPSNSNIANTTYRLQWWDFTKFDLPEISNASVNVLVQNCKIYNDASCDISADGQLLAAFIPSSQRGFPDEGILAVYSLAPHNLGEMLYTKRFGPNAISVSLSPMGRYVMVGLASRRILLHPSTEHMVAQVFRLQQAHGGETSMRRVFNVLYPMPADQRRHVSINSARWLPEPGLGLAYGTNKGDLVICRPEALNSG
UniProt P24385: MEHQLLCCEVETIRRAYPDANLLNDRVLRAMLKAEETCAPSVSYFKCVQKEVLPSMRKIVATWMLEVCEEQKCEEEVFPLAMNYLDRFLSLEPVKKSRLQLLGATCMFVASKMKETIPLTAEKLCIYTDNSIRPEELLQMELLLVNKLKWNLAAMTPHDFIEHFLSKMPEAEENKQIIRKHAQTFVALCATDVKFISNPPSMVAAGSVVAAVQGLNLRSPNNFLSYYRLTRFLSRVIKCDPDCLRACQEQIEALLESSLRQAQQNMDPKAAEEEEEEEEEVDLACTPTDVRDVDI
UniProt P30279: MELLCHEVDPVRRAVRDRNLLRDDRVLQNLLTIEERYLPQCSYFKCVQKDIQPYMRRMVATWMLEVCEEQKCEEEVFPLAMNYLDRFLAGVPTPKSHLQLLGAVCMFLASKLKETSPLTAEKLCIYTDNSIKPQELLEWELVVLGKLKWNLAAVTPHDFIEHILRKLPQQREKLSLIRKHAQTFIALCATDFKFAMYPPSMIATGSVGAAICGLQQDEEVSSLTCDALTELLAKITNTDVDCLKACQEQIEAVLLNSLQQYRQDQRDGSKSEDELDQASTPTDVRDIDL

How the values were obtained:
[1] = biological target: GST-CDK4EE (CDK4 with G43-G47 replaced with Glu-Glu) (human) (UniProt P11802); test: tandem affinity co-purification
[2] = biological target: MBP-AMBRA1^WD40 (residues M1-N204 directly fused to S853-G1044), wild type (human) (UniProt Q9C0C7); test: pull-down

binding [1]: binds
Molecule: TSF-cyclin D1 T286A (from UniProt P24385 1-295)

binding [2]: binds
Molecule: TSF-cyclin D2, full length (from UniProt P30279 1-289)

binding [1]: binds
binding [2]: binds
Molecule: TSF-cyclin D3, full length (from UniProt P30281 1-292)

binding [1]: binds
B1: TSF-cyclin D3 T283A (protein, UniProt P30281 1-292)
chain: MELLCCEGTRHAPRAGPDPRLLGDQRVLQSLLRLEERYVPRASYFQCVQREIKPHMRKMLAYWMLEVCEEQRCEEEVFPLAMNYLDRYLSCVPTRKAQLQLLGAVCMLLASKLRETTPLTIEKLCIYTDHAVSPRQLRDWEVLVLGKLKWDLAAVIAHDFLAFILHRLSLPRDRQALVKKHAQTFLALCATDYTFAMYPPSMIATGSIGAAVQGLGACSMSGDELTELLAGITGTEVDCLRACQEQIEAALRESLREASQTSSSPAPKAPRGSSSQGPSQTSAPTDVTAIHL
